Source: paper PMC7819943, “Rice protein-binding microarrays: a tool to detect cis-acting elements near promoter regions in rice”
Some of the results follow.

By UniProt entry, the sequences of proteins in these tests, tags left out.
UniProt Q0JBA9, entry or part of it: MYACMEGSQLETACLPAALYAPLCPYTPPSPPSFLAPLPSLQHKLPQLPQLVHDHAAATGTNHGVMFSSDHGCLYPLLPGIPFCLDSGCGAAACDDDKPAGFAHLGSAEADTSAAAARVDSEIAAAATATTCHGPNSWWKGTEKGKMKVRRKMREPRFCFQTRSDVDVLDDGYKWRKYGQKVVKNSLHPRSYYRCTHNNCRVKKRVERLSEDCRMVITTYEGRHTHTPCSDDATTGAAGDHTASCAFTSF

Each sequence was assayed against OsWRKY34 (Oryza sativa, UniProt Q0JBA9 1-250) (assay: protein-binding microarray (RPBM); PBS, 2% BSA, 51.3 ng/ul salmon testes DNA, 50 uM zinc acetate, 200 nM TF, 25 C, 1 h; high values mean tight binding). Details: protein: recombinant; tags: N-terminal polyhistidine and DsRed monomer fusion (pET32a); label: CyDye5-dUTP incorporated in the synthesized complementary strand; 3' TTTTT single-stranded linker to array surface; dsDNA, one strand shown.
Outline: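 Transcription factors were made in E. coli BL21-CodonPlus as N-terminal fusions to a polyhistidine tag and DsRed, then purified on Ni–NTA. After primer extension with Cy5-dUTP and blocking with 2% BSA, a custom Agilent array was exposed for 1 h at 25 °C to 200 nM protein in PBS, 2% BSA, salmon testes DNA and 50 µM zinc acetate. Washed arrays were scanned on an Axon 4000B, and the binding signal is per-feature fluorescence intensity in arbitrary units.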
For “CCTCCACGTGATTTCCTTTTTTGGCACCATATTACTTTCCCGGAGTCACCTAGTGCAG”, the binding signal was 11200 fluorescence intensity (a.u.).
In the case of “GTACCAGCGACAGCTTTTCCCTTCCATTTCTTTTCTCCTTCGGAGTCACCTAGTGCAG”, the binding signal is reported as 10300 fluorescence intensity (a.u.).
With “GGGGAGGTGAGGGGCAGCCAGGGAGGCGGGGAGTTGCTGCCGGAGTCACCTAGTGCAG” the binding signal was 11300 fluorescence intensity (a.u.).
In the case of “GATATCCTTACCGTTTCCGAGTATACGTTCCGATTCCATTCGGAGTCACCTAGTGCAG”, the binding signal is reported as 8870 fluorescence intensity (a.u.).
With “TCTCCATTGCTTCATCTTGATCGGTCATGATACTCTTTGGCGGAGTCACCTAGTGCAG” the binding signal was 9240 fluorescence intensity (a.u.).
“GCCTGTTTCTCCTTCGGCTGATGATATCTGTGCTGTTTTTCGGAGTCACCTAGTGCAG” was tested, and the binding signal was 8550 fluorescence intensity (a.u.).
With “TTTTACTTTCCTTTTTTTTTTGGCCATTAGAAAAAGTGCACGGAGTCACCTAGTGCAG” the binding signal was 8960 fluorescence intensity (a.u.).
With “TGTGGGTGGTGGCTCTAGGGTTTAACAAGACGTCGTCTGTCGGAGTCACCTAGTGCAG” the binding signal was 8130 fluorescence intensity (a.u.).
For “CTATTGTCGTGCGTGTGACCACTATTAAGCAGCATGCCGACGGAGTCACCTAGTGCAG”, the binding signal was 8280 fluorescence intensity (a.u.).
In the case of “CTCGTTATTTTCTTCTTGATCCATCAGTGTCTAGAATATTCGGAGTCACCTAGTGCAG”, the binding signal is reported as 8430 fluorescence intensity (a.u.).
For “ACTACTCTCGTACTGTACTACTGTGGCGTGGCTATCTACTCGGAGTCACCTAGTGCAG”, the binding signal was 8530 fluorescence intensity (a.u.).
For “ATTACAGTAATAATTCCCGCGTTTTTAATTCTTCTTCTTTCGGAGTCACCTAGTGCAG”, the binding signal was 9480 fluorescence intensity (a.u.).
In the case of “ACAGAGGGAGTCATTTTGTGTTGTTTTAATAGTTAGAGGGCGGAGTCACCTAGTGCAG”, the binding signal is reported as 8200 fluorescence intensity (a.u.).
In the case of “TTTGTGTAGTGTATCATATTTGGAGTTCTGCTGTTCCACTCGGAGTCACCTAGTGCAG”, the binding signal is reported as 11200 fluorescence intensity (a.u.).
In the case of “CTCCTGTCTGCTAGACACGATTCTGCACCATATGTACATCCGGAGTCACCTAGTGCAG”, the binding signal is reported as 9670 fluorescence intensity (a.u.).
“CTCCGCCGCGCTCGTGGGGTTTAGGGTTTTAAGGTGGAGGCGGAGTCACCTAGTGCAG” was tested, and the binding signal was 8130 fluorescence intensity (a.u.).
In the case of “GGAATCGAGGTGGACTTTTTCCTATTTTTGGCCCAGAACTCGGAGTCACCTAGTGCAG”, the binding signal is reported as 11500 fluorescence intensity (a.u.).
For “AACTTTCTCAACTTCTACTCTTTCGTTTTTCATACGCACGCGGAGTCACCTAGTGCAG”, the binding signal was 11000 fluorescence intensity (a.u.).
“CCGTCTCTTTTCAGATTATTCATTGGATTATGTGCTATATCGGAGTCACCTAGTGCAG” was tested, and the binding signal was 8170 fluorescence intensity (a.u.).
“GCAATCTGCGCGGGCCACTATGCTTGTTATAATCTATTTCCGGAGTCACCTAGTGCAG” was tested, and the binding signal was 8200 fluorescence intensity (a.u.).
“ACCCGTTGTTTTTGTTTTACCTGTGCTACGGTCAAAATGTCGGAGTCACCTAGTGCAG” was tested, and the binding signal was 10300 fluorescence intensity (a.u.).
With “ACCAGGGGAGGGGACAGCACACACTATCCATTCCAGTGCCCGGAGTCACCTAGTGCAG” the binding signal was 12800 fluorescence intensity (a.u.).
With “ATATTGCCCATCACCACCACCCACTGCAACCGGCTGTTAACGGAGTCACCTAGTGCAG” the binding signal was 8370 fluorescence intensity (a.u.).
For “CTAGTTCACCTGTCTTTATCAGTTTGCGTTGTGTCATCCGCGGAGTCACCTAGTGCAG”, the binding signal was 11700 fluorescence intensity (a.u.).
“ACCGTTGGTTTCCATCTCTTCGAGCGTGTGTTAGGGGCATCGGAGTCACCTAGTGCAG” was tested, and the binding signal was 9650 fluorescence intensity (a.u.).
For “CGTTTTCCGCGCTCACACTTTTCAAACTACTAAACGGTGTCGGAGTCACCTAGTGCAG”, the binding signal was 9380 fluorescence intensity (a.u.).
For “TCCCCGCGGGCATGCCCGTTGCTGCGGGCGCAGCTCAATTCGGAGTCACCTAGTGCAG”, the binding signal was 8280 fluorescence intensity (a.u.).
With “GGTTCGTTCGTTCCTCCCGCGGCGACGGGGTGGGGCACACCGGAGTCACCTAGTGCAG” the binding signal was 8930 fluorescence intensity (a.u.).
For “TCCTTGACAGTTCTTGCATTGTATGTGTCAGCTCATGTGTCGGAGTCACCTAGTGCAG”, the binding signal was 11600 fluorescence intensity (a.u.).
In the case of “GAGTTTTTGTTTATATTATTTGATCACTCGTCTTATTTAACGGAGTCACCTAGTGCAG”, the binding signal is reported as 10500 fluorescence intensity (a.u.).
For “TGGGAGCTTTGCTTGGGGTGTGTGTGTGTTTGGGTGGTGCCGGAGTCACCTAGTGCAG”, the binding signal was 10900 fluorescence intensity (a.u.).
For “TGTTCTACCTTTTAGCAGGTTTGTTTGAGCCTGTATACATCGGAGTCACCTAGTGCAG”, the binding signal was 8090 fluorescence intensity (a.u.).
For “AATTGATCGCGGGCACGAGATGCGTCTCGTCGTCGTATTTCGGAGTCACCTAGTGCAG”, the binding signal was 8280 fluorescence intensity (a.u.).
In the case of “ATAGCTCACCTTGTTTTACGTATCTTCTTAAACTTCTCTTCGGAGTCACCTAGTGCAG”, the binding signal is reported as 10800 fluorescence intensity (a.u.).
For “ACTAGAATGCTATTATTATGTTTAGGTATGTATGTTATATCGGAGTCACCTAGTGCAG”, the binding signal was 8200 fluorescence intensity (a.u.).
With “TTCCTCTCTCCATGTGTGTTCAACAGAGCATGCTTCTCATCGGAGTCACCTAGTGCAG” the binding signal was 8400 fluorescence intensity (a.u.).
For “TTTCCATCCGTTTTCGAGCCGTTTTCATCCCTATTTGGTACGGAGTCACCTAGTGCAG”, the binding signal was 9000 fluorescence intensity (a.u.).
In the case of “CCTAAACACCAAGGCACTCTCTAGGCAAGCATCCCACCTTCGGAGTCACCTAGTGCAG”, the binding signal is reported as 8210 fluorescence intensity (a.u.).
For “TCGTCGTCGTCTCGTCGTTTCCACAATCAATTTGACGTCGCGGAGTCACCTAGTGCAG”, the binding signal was 8130 fluorescence intensity (a.u.).
With “TATCGTCATACCACTTATTGTGCTTCTTGTAAGTGTCACACGGAGTCACCTAGTGCAG” the binding signal was 10500 fluorescence intensity (a.u.).
With “CTGCTATTTCTTCGCTTGTTTCTCATGCGTGTTTACAAGACGGAGTCACCTAGTGCAG” the binding signal was 8740 fluorescence intensity (a.u.).
“AAATTCCAACTCCGTATAGTATCAAGTACAGCAATTTCTACGGAGTCACCTAGTGCAG” was tested, and the binding signal was 8300 fluorescence intensity (a.u.).
